Data taken from patent US8466107B2 (Bracco Imaging SpA, priority 2006, dated 2013).

Legend:
[1] = general procedure: Fmoc solid-phase peptide synthesis; Fmoc-PAL-PEG-PS resin (0.18 mmol/g); HATU/DIEA (manual couplings); settings: for isolated mass / isolated yield: whole synthesis; for conjugation yield: conjugation step
[2] = general procedure: Fmoc solid-phase peptide synthesis; Fmoc-PAL-PEG-PS; HATU/DIEA (manual couplings); settings: whole synthesis, scale 0.25 mmol
[3] = general procedure: Fmoc solid-phase peptide synthesis; TGR; HATU/DIEA (manual couplings); settings: whole synthesis, scale 130 μmol
[4] = general procedure: Fmoc solid-phase peptide synthesis; Fmoc-Pal-Peg-PS resin; HATU/DIEA (manual couplings); settings: whole synthesis, scale 0.2 mmol
[5] = scale of the general procedure 0.25 mmol

Ac-GWQPC*PWESWTFC*WDPGGGK(DSPE-PG4-Glut)-NH2 (GWQPCPWESWTFCWDPGGGK; N-acetyl, C-amide, DSPE-PG4-Glut lipid, cyclic 5-13)
step yield ([1]; lipidation step): 30%

Ac-GWQPC*PWESWTFC*WDPGGGK-NH2
isolated mass [2]: 105 mg | isolated yield [2]: 17.8%

Ac-RWQPC*PAESWT-Cha-C*WDPGGGK(DSPE-PG4-Glut)-NH2
step yield ([1]; lipidation step): 34%

Ac-RWQPC*PAESWT-Cha-C*WDPGGGK-NH2
isolated mass [1]: 140 mg | isolated yield [1, 5]: 27.5%

Ac-SGSGJWQPC*PWESWTFC*WDPGGGK(DSPE-PG4-Glut)-NH2
step yield ([1]; lipidation step): 25.7%

Ac-SGSGJWQPC*PWESWTFC*WDPGGGK-NH2
isolated mass ([1]; scale 0.266 mmol): 130 mg | isolated yield ([1]; scale 0.266 mmol): 18.8%

Ac-SGSGSGSGWQPC*PWESWTFC*WDPGGGK(DSPE-PG4-Glut)-NH2 (SGSGSGSGWQPCPWESWTFCWDPGGGK; N-acetyl, C-amide, DSPE-PG4-Glut lipid, cyclic 12-20)
step yield ([1]; lipidation step): 60% | final HPLC purity ([1]; lipidation step, analytical HPLC, UV 220 nm (and ELSD for lipopeptides)): >98%

Ac-WQPC*PAESWTFC*WDPGGGK(DPPE-PG4-Glut)-NH2
step yield ([1]; lipidation step): 48%

Ac-WQPC*PAESWTFC*WDPGGGK(DSPE-PG4-Glut)-NH2 (WQPCPAESWTFCWDPGGGK; N-acetyl, C-amide, DSPE-PG4-Glut lipid, cyclic 4-12)
step yield ([1]; lipidation step): 44%

Ac-WQPC*PAESWTFC*WDPGGGK(JJ)-NH2
isolated mass [3]: 42 mg | isolated yield [3]: 13%

Ac-WQPC*PAESWTFC*WDPGGGK(NH2-PG2-JJ)-NH2
conjugation yield [1]: 47%

Ac-WQPC*PWESWTFC*WDPGGGK(DPPE-PG4-Glut)-NH2 (WQPCPWESWTFCWDPGGGK; cyclised or stapled)
step yield ([1]; lipidation step): 52% | final HPLC purity ([1]; lipidation step, UV @ 220 nm & ELSD): >98% (area %)

Ac-WQPCPAESWTFCWDPGAGSGK(DPPE-Pro9-Glut-Ttda-Dga)-NH2Cyclic (4→12) Peptide (N-acetyl, C-amide, DPPE-Pro9-Glut-Ttda-Dga lipid, cyclic)
step yield ([1]; lipidation step): 46.5% yield

Ac-WQPCPAESWTFCWDPGSAGSK(DPPE-Pro9-Glut-Ttda-Dga)-NH2 Cyclic (4→12) Peptide (N-acetyl, C-amide, DPPE-Pro9-Glut-Ttda-Dga lipid, cyclic)
step yield ([1]; lipidation step): 32.8% yield

Ac-WQPCPAESWTFCWDPGSAGSK(Dga-Ttda)-NH2
isolated mass [4]: 175 mg | isolated yield [4]: 16.2% yield

Aloc-RWQPC*PAESWT-Cha-C*WDPGGGK-NH2
isolated mass [1]: 230 mg | isolated yield [1, 5]: 26.7%

Aloc-RWQPC*PWESWTFC*WDPGGGK-NH2
isolated mass ([1]; scale 0.54 mmol): 290 mg | isolated yield ([1]; scale 0.54 mmol): 21%

Aloe-RWQPC*PAESWTFC*WDPGGGK(CF5)-NH2
conjugation yield [1]: 62.8%

RWQPC*PAESWT-Cha-C*WDPGGGK(DSPE-PG4-Glut)-NH2
difficulty met ([1]; lipidation step): HPLC analysis of the isolated product indicated the need for additional purification | step yield ([1]; lipidation step): 4.5%

RWQPC*PAESWTFC*WDPGGGK(CF5)-NH2
step yield ([1]; late stage modification step): 60.4%

RWQPC*PWESWTFC*WDPGGGK(DSPE-PG4-Glut)-NH2 (RWQPCPWESWTFCWDPGGGK; C-amide, DSPE-PG4-Glut lipid, cyclic 5-13)
step yield ([1]; lipidation step, based on the input DSPE-PG4-NH2): 29%
